# From the supplement of paper PMC8728848
# The list shows a part of the results.
# Key:
# Assay in all cases: glycan array binding signal (z-score within array); higher = stronger binding
# Details in all cases: glycan notation: IUPAC condensed, linker removed; mutation: D21K
# [1] = target: Neu5Ac(a2-6)Gal(b1-4)GlcNAc(b1-2)Man(a1-6)[GlcNAc(b1-2)Man(a1-3)]Man(b1-4)GlcNAc(b1-4)GlcNAc
# How it was run: (§1)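 Glycan array binding is given as a within-array Z-score, which can be read as non-binding when negative. The arrays, 3228 of them, came from the Consortium for Functional Glycomics database and were retained only where the protein sequence was available. Z-scores were averaged across arrays of the same protein sequence at different concentrations or buffers and across linkers.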
# [2] = target: Neu5Ac(a2-6)Gal(b1-4)GlcNAc(b1-2)Man(a1-6)[Man(a1-3)]Man(b1-4)GlcNAc(b1-4)GlcNAc
# How it was run: as §1
# [3] = target: Neu5Ac(a2-6)Gal(b1-4)GlcNAc(b1-2)[Neu5Ac(a2-6)Gal(b1-4)GlcNAc(b1-4)]Man(a1-3)[GlcNAc(b1-4)][Neu5Ac(a2-6)Gal(b1-4)GlcNAc(b1-2)[Neu5Ac(a2-6)Gal(b1-4)GlcNAc(b1-6)]Man(a1-6)]Man(b1-4)GlcNAc(b1-4)GlcNAc
# How it was run: as §1
# [4] = target: Neu5Ac(a2-6)Gal(b1-4)GlcNAc(b1-2)[Neu5Ac(a2-6)Gal(b1-4)GlcNAc(b1-4)]Man(a1-3)[GlcNAc(b1-4)][Neu5Ac(a2-6)Gal(b1-4)GlcNAc(b1-4)Man(a1-6)]Man(b1-4)GlcNAc(b1-4)GlcNAc
# How it was run: as §1
# [5] = target: Neu5Ac(a2-6)Gal(b1-4)GlcNAc(b1-2)[Neu5Ac(a2-6)Gal(b1-4)GlcNAc(b1-6)]Man(a1-6)[Neu5Ac(a2-6)Gal(b1-4)GlcNAc(b1-2)Man(a1-3)][GlcNAc(b1-4)]Man(b1-4)GlcNAc(b1-4)GlcNAc
# How it was run: as §1
# [6] = target: Neu5Ac(a2-6)Gal(b1-4)GlcNAc(b1-3)Gal(b1-3)GlcNAc
# How it was run: as §1
# [7] = target: Neu5Ac(a2-6)Gal(b1-4)GlcNAc(b1-3)Gal(b1-4)GlcNAc
# How it was run: as §1
# [8] = target: Neu5Ac(a2-6)Gal(b1-4)GlcNAc(b1-3)Gal(b1-4)GlcNAc(b1-2)Man(a1-3)[Neu5Ac(a2-6)Gal(b1-4)GlcNAc(b1-3)Gal(b1-4)GlcNAc(b1-2)Man(a1-6)]GalNAc
# How it was run: as §1
# [9] = target: Neu5Ac(a2-6)Gal(b1-4)GlcNAc(b1-3)Gal(b1-4)GlcNAc(b1-3)Gal(b1-4)GlcNAc
# How it was run: as §1
# [10] = target: Neu5Ac(a2-6)Gal(b1-4)GlcNAc(b1-3)Gal(b1-4)GlcNAc(b1-3)Gal(b1-4)GlcNAc(b1-2)Man(a1-3)[Neu5Ac(a2-6)Gal(b1-4)GlcNAc(b1-3)Gal(b1-4)GlcNAc(b1-3)Gal(b1-4)GlcNAc(b1-2)Man(a1-6)]GalNAc
# How it was run: as §1
# [11] = target: Neu5Ac(a2-6)Gal(b1-4)GlcNAc(b1-3)Gal(b1-4)GlcNAc(b1-3)GalNAc
# How it was run: as §1
# [12] = target: Neu5Ac(a2-6)Gal(b1-4)GlcNAc(b1-3)Gal(b1-4)GlcNAc(b1-3)[Neu5Ac(a2-6)Gal(b1-4)GlcNAc(b1-3)Gal(b1-4)GlcNAc(b1-6)]GalNAc
# How it was run: as §1
# [13] = target: Neu5Ac(a2-6)Gal(b1-4)GlcNAc(b1-3)Gal(b1-4)GlcNAc(b1-6)[Gal(b1-3)]GalNAc
# How it was run: as §1
# [14] = target: Neu5Ac(a2-6)Gal(b1-4)GlcNAc(b1-3)Gal(b1-4)[Fuc(a1-3)]GlcNAc(b1-3)Gal(b1-4)[Fuc(a1-3)]GlcNAc
# How it was run: as §1
# [15] = target: Neu5Ac(a2-6)Gal(b1-4)GlcNAc(b1-3)GalNAc
# How it was run: as §1
# [16] = target: Neu5Ac(a2-6)Gal(b1-4)GlcNAc(b1-3)[Neu5Ac(a2-6)Gal(b1-4)GlcNAc(b1-6)]GalNAc
# How it was run: as §1
# [17] = target: Neu5Ac(a2-6)Gal(b1-4)GlcNAc(b1-6)GalNAc
# How it was run: as §1
# [18] = target: Neu5Ac(a2-6)Gal(b1-4)GlcNAc(b1-6)[Gal(b1-3)GlcNAc(b1-3)]Gal(b1-4)Glc
# How it was run: as §1
# [19] = target: Neu5Ac(a2-6)Gal(b1-4)GlcNAc(b1-6)[Gal(b1-3)]GalNAc
# How it was run: as §1
# [20] = target: Neu5Ac(a2-6)Gal(b1-4)GlcNAc6S
# How it was run: as §1
# Neu5Ac(a2-6)GalNAc = target: Neu5Ac(a2-6)GalNAc
# How it was run: as §1
# [21] = target: Neu5Ac(a2-6)GalNAc(b1-4)GlcNAc
# How it was run: as §1
# [22] = target: Neu5Ac(a2-6)GalNAc(b1-4)GlcNAc6S
# How it was run: as §1
# [23] = target: Neu5Ac(a2-6)GlcNAc(b1-4)GlcNAc
# How it was run: as §1
# [24] = target: Neu5Ac(a2-6)GlcNAc(b1-4)GlcNAc(b1-4)GlcNAc
# How it was run: as §1
# Neu5Ac(a2-8)Neu5Ac = target: Neu5Ac(a2-8)Neu5Ac
# How it was run: as §1
# [25] = target: Neu5Ac(a2-8)Neu5Ac(a2-3)Gal(b1-3)GalNAc(b1-4)[Neu5Ac(a2-3)]Gal(b1-4)Glc
# How it was run: as §1
# [26] = target: Neu5Ac(a2-8)Neu5Ac(a2-3)Gal(b1-3)GalNAc(b1-4)[Neu5Ac(a2-8)Neu5Ac(a2-3)]Gal(b1-4)Glc
# How it was run: as §1
# [27] = target: Neu5Ac(a2-8)Neu5Ac(a2-3)Gal(b1-4)Glc
# How it was run: as §1
# [28] = target: Neu5Ac(a2-8)Neu5Ac(a2-3)Gal(b1-4)GlcNAc
# How it was run: as §1
# [29] = target: Neu5Ac(a2-8)Neu5Ac(a2-3)[Gal(b1-3)GalNAc(b1-4)]Gal(b1-4)Glc
# How it was run: as §1
# [30] = target: Neu5Ac(a2-8)Neu5Ac(a2-3)[GalNAc(b1-4)]Gal(b1-4)Glc
# How it was run: as §1
# [31] = target: Neu5Ac(a2-8)Neu5Ac(a2-8)Neu5Ac
# How it was run: as §1
# [32] = target: Neu5Ac(a2-8)Neu5Ac(a2-8)Neu5Ac(a2-3)Gal(b1-4)Glc
# How it was run: as §1
# [33] = target: Neu5Ac(a2-8)Neu5Ac(a2-8)Neu5Ac(a2-3)[Gal(b1-3)GalNAc(b1-4)]Gal(b1-4)Glc
# How it was run: as §1
# [34] = target: Neu5Ac(a2-8)Neu5Ac(a2-8)Neu5Ac(a2-3)[GalNAc(b1-4)]Gal(b1-4)Glc
# How it was run: as §1
# [35] = target: Neu5Ac(a2-8)Neu5Ac(a2-8)Neu5Ac(a2-8)Neu5Ac(a2-3)[GalNAc(b1-4)]Gal(b1-4)Glc
# How it was run: as §1
# [36] = target: Neu5Ac(a2-8)Neu5Gc(a2-3)Gal(b1-4)GlcNAc
# How it was run: as §1
# [37] = target: Neu5Ac(b2-6)Gal(b1-4)GlcNAc
# How it was run: as §1
# Neu5Ac(b2-6)GalNAc = target: Neu5Ac(b2-6)GalNAc
# How it was run: as §1
# [38] = target: Neu5Ac9Ac(a2-3)Gal(b1-3)GlcNAc
# How it was run: as §1
# [39] = target: Neu5Ac9Ac(a2-3)Gal(b1-4)GlcNAc
# How it was run: as §1
# [40] = target: Neu5Ac9Ac(a2-6)Gal(b1-4)GlcNAc
# How it was run: as §1
# [41] = target: Neu5Gc(a2-3)Gal(b1-3)GlcNAc
# How it was run: as §1
# [42] = target: Neu5Gc(a2-3)Gal(b1-3)[Fuc(a1-4)]GlcNAc
# How it was run: as §1
# Neu5Gc(a2-3)Gal(b1-4)Glc = target: Neu5Gc(a2-3)Gal(b1-4)Glc
# How it was run: as §1
# [43] = target: Neu5Gc(a2-3)Gal(b1-4)GlcNAc
# How it was run: as §1
# [44] = target: Neu5Gc(a2-3)Gal(b1-4)GlcNAc(b1-3)Gal(b1-4)GlcNAc(b1-2)Man(a1-3)[Neu5Gc(a2-3)Gal(b1-4)GlcNAc(b1-3)Gal(b1-4)GlcNAc(b1-2)Man(a1-6)]Man(b1-4)GlcNAc(b1-4)GlcNAc
# How it was run: as §1
# [45] = target: Neu5Gc(a2-3)Gal(b1-4)[Fuc(a1-3)]GlcNAc
# How it was run: as §1
# [46] = target: Neu5Gc(a2-6)Gal(b1-4)GlcNAc
# How it was run: as §1
# Neu5Gc(a2-6)GalNAc = target: Neu5Gc(a2-6)GalNAc
# How it was run: as §1
# [47] = target: Neu5Gc(a2-8)Neu5Ac(a2-3)Gal(b1-4)GlcNAc
# How it was run: as §1
# [48] = target: Neu5Gc(a2-8)Neu5Gc(a2-3)Gal(b1-4)GlcNAc
# How it was run: as §1
binder,measurement,setting,value
KILRGVCKKIMRTFLRRISKKILTGKK [C7A (Sus scrofa)],glycan array binding signal (z-score),[1],0.82
same,glycan array binding signal (z-score),[2],-0.747
same,glycan array binding signal (z-score),[3],-0.122
same,glycan array binding signal (z-score),[4],0.074
same,glycan array binding signal (z-score),[5],0.348
same,glycan array binding signal (z-score),[6],-0.057
same,glycan array binding signal (z-score),[7],0.296
same,glycan array binding signal (z-score),[8],-0.404
same,glycan array binding signal (z-score),[9],0.41
same,glycan array binding signal (z-score),[10],1.71
same,glycan array binding signal (z-score),[11],0.528
same,glycan array binding signal (z-score),[12],1.8
same,glycan array binding signal (z-score),[13],0.269
same,glycan array binding signal (z-score),[14],-0.054
same,glycan array binding signal (z-score),[15],1.32
same,glycan array binding signal (z-score),[16],1.39
same,glycan array binding signal (z-score),[17],1.56
same,glycan array binding signal (z-score),[18],-0.436
same,glycan array binding signal (z-score),[19],-1.2
same,glycan array binding signal (z-score),[20],0.4
same,glycan array binding signal (z-score),Neu5Ac(a2-6)GalNAc,-1.98
same,glycan array binding signal (z-score),[21],-1.34
same,glycan array binding signal (z-score),[22],-0.017
same,glycan array binding signal (z-score),[23],-0.555
same,glycan array binding signal (z-score),[24],-1.44
same,glycan array binding signal (z-score),Neu5Ac(a2-8)Neu5Ac,-0.467
same,glycan array binding signal (z-score),[25],0.813
same,glycan array binding signal (z-score),[26],-0.48
same,glycan array binding signal (z-score),[27],-0.811
same,glycan array binding signal (z-score),[28],-1.16
same,glycan array binding signal (z-score),[29],-1.49
same,glycan array binding signal (z-score),[30],0.169
same,glycan array binding signal (z-score),[31],-0.334
same,glycan array binding signal (z-score),[32],-0.534
same,glycan array binding signal (z-score),[33],-0.693
same,glycan array binding signal (z-score),[34],0.151
same,glycan array binding signal (z-score),[35],0.219
same,glycan array binding signal (z-score),[36],-1.09
same,glycan array binding signal (z-score),[37],-0.121
same,glycan array binding signal (z-score),Neu5Ac(b2-6)GalNAc,-0.603
same,glycan array binding signal (z-score),[38],0.779
same,glycan array binding signal (z-score),[39],0.878
same,glycan array binding signal (z-score),[40],0.922
same,glycan array binding signal (z-score),[41],-0.028
same,glycan array binding signal (z-score),[42],-0.488
same,glycan array binding signal (z-score),Neu5Gc(a2-3)Gal(b1-4)Glc,-0.291
same,glycan array binding signal (z-score),[43],0.298
same,glycan array binding signal (z-score),[44],0.755
same,glycan array binding signal (z-score),[45],-0.7
same,glycan array binding signal (z-score),[46],-1.01
same,glycan array binding signal (z-score),Neu5Gc(a2-6)GalNAc,-0.346
same,glycan array binding signal (z-score),[47],-1.99
same,glycan array binding signal (z-score),[48],-1.02

# Given with tabs: part of the list above.
binder	measurement	setting	value
KILRGVCKKIMRTFLRRISKKILTGKK [C7A (Sus scrofa)]	glycan array binding signal (z-score)	[45]	-0.7
same	glycan array binding signal (z-score)	[46]	-1.01
same	glycan array binding signal (z-score)	Neu5Gc(a2-6)GalNAc	-0.346
same	glycan array binding signal (z-score)	[47]	-1.99
